{
  "sequences": {"note": "Amino acid sequences for entries named in this document (tags omitted).", "UniProt O35800": "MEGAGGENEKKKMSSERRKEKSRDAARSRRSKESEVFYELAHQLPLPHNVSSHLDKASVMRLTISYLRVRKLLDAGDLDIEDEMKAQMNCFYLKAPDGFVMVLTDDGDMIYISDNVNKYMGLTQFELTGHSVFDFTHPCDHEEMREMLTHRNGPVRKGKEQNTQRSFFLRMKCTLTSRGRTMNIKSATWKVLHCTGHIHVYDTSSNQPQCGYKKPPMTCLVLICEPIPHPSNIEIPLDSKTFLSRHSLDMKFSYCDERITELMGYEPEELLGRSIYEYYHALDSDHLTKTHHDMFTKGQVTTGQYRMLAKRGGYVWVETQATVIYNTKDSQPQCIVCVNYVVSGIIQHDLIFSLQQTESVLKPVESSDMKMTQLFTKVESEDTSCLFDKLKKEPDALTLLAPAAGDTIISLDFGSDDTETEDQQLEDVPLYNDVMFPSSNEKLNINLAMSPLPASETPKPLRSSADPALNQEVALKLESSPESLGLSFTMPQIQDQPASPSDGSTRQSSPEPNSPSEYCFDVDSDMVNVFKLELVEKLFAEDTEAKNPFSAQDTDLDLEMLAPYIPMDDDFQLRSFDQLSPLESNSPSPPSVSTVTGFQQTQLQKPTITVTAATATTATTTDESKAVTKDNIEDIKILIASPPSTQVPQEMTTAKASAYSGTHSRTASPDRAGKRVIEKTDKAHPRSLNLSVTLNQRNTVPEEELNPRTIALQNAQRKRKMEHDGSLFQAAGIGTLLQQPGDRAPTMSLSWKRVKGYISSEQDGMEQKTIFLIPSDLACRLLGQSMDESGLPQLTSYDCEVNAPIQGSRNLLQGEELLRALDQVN"},
  "source": "paper PMC10506287",
  "biological_target": "T1, S100a9 (rat (endogenous in H9c2)) (UniProt P50116)",
  "T1 sequence": "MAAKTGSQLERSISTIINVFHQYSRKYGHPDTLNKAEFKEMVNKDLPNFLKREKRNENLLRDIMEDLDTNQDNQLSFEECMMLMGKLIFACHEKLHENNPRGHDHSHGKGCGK",
  "experiment": "co-IP; protein A/G magnetic beads with S100a9 antibody, HIF-1α antibody or rabbit IgG, incubated with protein lysates overnight; cardiomyocytes (H9c2) untreated or treated with β1-AAs for 24 h; detected by western blot",
  "note": "No constants are given. Whether binding was seen depends on the method and setting. In cells and extracts the contact can be indirect. Some binding calls cover weakened binding; strength is not graded here.",
  "data": [
    {"substance": "hypoxia inducible factor-1α (from UniProt O35800 1-825)", "values": [
      {"measurement": "binding", "result": "binds"}
    ]}
  ]
}
